According to patent US11393988B2, “Metal complexes” (Merck Patent GmbH, priority 2014, dated 2022):

What was measured:
[1] = Solution-processed OLEDs from soluble functional materials; conditions: solution-processed OLED
[2] = Vacuum-processed OLEDs with the complexes as phosphorescent emitter (efficiency, voltage, colour, lifetime)

## CC1(C)CCC(C)(C)c2cc3c(-c4cc5oc6ccccc6c5c[c]4[Ir]([c]4ccccc4-c4ccccn4)[c]4ccccc4-c4ccccn4)nccc3cc21 [Ir523]
[1]; device Type 2, at 1000 cd/m^2
  EQE (%) 1000 cd/m^2: 19.1%
  Voltage (V) 1000 cd/m^2: 3.8 V
[1]; device Type 2, initial luminous density 1000 cd/m^2
  LT50 (h) 1000 cd/m^2: 160000 h
[2]; orange-red, yellow and green OLEDs, time to 80% of initial luminous density 1000 cd/m^2
  LT80 (h) 1000 cd/m^2: 22000 h
[2]; vacuum-processed OLED, at 1000 cd/m^2
  Voltage (V) 1000 cd/m^2: 3.0 V
[2]; vacuum-processed OLED, complex as emitter in EML (structure per Table 1), at 1000 cd/m^2
  EQE (%) 1000 cd/m^2: 18.0%

## Cc1cc(-c2cc3c(c[c]2[Ir]([c]2cc4c(cc2-c2cc(C)c(-c5ccccc5)cn2)C(C)(C)C(C)C(C)C4(C)C)[c]2cc4c(cc2-c2cc(C)c(-c5ccccc5)cn2)C(C)(C)C(C)C(C)C4(C)C)C(C)(C)C(C)C(C)C3(C)C)ncc1-c1ccccc1 (stereo not drawn) [Ir(LH54)3]
[1]; device Type 1, at 1000 cd/m^2
  EQE (%) 1000 cd/m^2: 21.6%
  Voltage (V) 1000 cd/m^2: 4.6 V
[1]; device Type 1, initial luminous density 1000 cd/m^2
  LT50 (h) 1000 cd/m^2: 200000 h
